This passage reports binding results from publication doi:10.1101/2022.04.29.489008.

The target in assay [1] is MpSETA fused with the GAL4 DNA-binding domain (Marchantia polymorpha). Kind of assay: two-hybrid.
Assay [2] has the same target. In words: two-hybrid. The source holds these as a separate data set.
The target of assay [3] is MpSETA-nYFP (Marchantia polymorpha). Kind of assay: split reporter.

Where two headings read alike, the source gives them in different places. Results are given in words; binding and its absence hold for the method and conditions named. Binding calls can cover weak binding; strength is not graded here. For some assays here: Where a sequence is shown, tags or fusion partners need not be part of it. For some assays here: In cells and extracts the contact can be indirect.

With “MpICE2 fused with the GAL4 activation domain (from UniProt A0A2R6W565)”, the binding result in assay [1] is “binds”.

B1: AtSCRM2 fused with the GAL4 activation domain (protein, UniProt Q9LPW3 1-450)
chain: MNSDGVWLDGSGESPEVNNGEAASWVRNPDEDWFNNPPPPQHTNQNDFRFNGGFPLNPSENLLLLLQQSIDSSSSSSPLLHPFTLDAASQQQQQQQQQQEQSFLATKACIVSLLNVPTINNNTFDDFGFDSGFLGQQFHGNHQSPNSMNFTGLNHSVPDFLPAPENSSGSCGLSPLFSNRAKVLKPLQVMASSGSQPTLFQKRAAMRQSSSSKMCNSESSSEMRKSSYEREIDDTSTGIIDISGLNYESDDHNTNNNKGKKKGMPAKNLMAERRRRKKLNDRLYMLRSVVPKISKMDRASILGDAIDYLKELLQRINDLHTELESTPPSSSSLHPLTPTPQTLSYRVKEELCPSSSLPSPKGQQPRVEVRLREGKAVNIHMFCGRRPGLLLSTMRALDNLGLDVQQAVISCFNGFALDVFRAEQCQEDHDVLPEQIKAVLLDTAGYAGLV
Take B1: the binding result in assay [2] is reported as “binds”.

B2: cYFP-AtSCRM2 (protein, UniProt Q9LPW3 1-450)
chain: B1 chain
Consider B2, for which the binding result in assay [3] was “binds”.

B3: AtICE1 fused with the GAL4 activation domain (protein, UniProt Q9LSE2 1-494)
chain: MGLDGNNGGGVWLNGGGGEREENEEGSWGRNQEDGSSQFKPMLEGDWFSSNQPHPQDLQMLQNQPDFRYFGGFPFNPNDNLLLQHSIDSSSSCSPSQAFSLDPSQQNQFLSTNNNKGCLLNVPSSANPFDNAFEFGSESGFLNQIHAPISMGFGSLTQLGNRDLSSVPDFLSARSLLAPESNNNNTMLCGGFTAPLELEGFGSPANGGFVGNRAKVLKPLEVLASSGAQPTLFQKRAAMRQSSGSKMGNSESSGMRRFSDDGDMDETGIEVSGLNYESDEINESGKAAESVQIGGGGKGKKKGMPAKNLMAERRRRKKLNDRLYMLRSVVPKISKMDRASILGDAIDYLKELLQRINDLHNELESTPPGSLPPTSSSFHPLTPTPQTLSCRVKEELCPSSLPSPKGQQARVEVRLREGRAVNIHMFCGRRPGLLLATMKALDNLGLDVQQAVISCFNGFALDVFRAEQCQEGQEILPDQIKAVLFDTAGYAGMI
In the case of B3, the binding result in assay [2] is on record as “binds”.

B4: cYFP-AtICE1 (protein, UniProt Q9LSE2 1-494)
chain: B3 chain
On to B4, for which the binding entry in assay [3] was “binds”.
